## Library screening results

Chains of the proteins cited; added tags and fusions are not shown.
UniProt E9BF75, entry or part of it: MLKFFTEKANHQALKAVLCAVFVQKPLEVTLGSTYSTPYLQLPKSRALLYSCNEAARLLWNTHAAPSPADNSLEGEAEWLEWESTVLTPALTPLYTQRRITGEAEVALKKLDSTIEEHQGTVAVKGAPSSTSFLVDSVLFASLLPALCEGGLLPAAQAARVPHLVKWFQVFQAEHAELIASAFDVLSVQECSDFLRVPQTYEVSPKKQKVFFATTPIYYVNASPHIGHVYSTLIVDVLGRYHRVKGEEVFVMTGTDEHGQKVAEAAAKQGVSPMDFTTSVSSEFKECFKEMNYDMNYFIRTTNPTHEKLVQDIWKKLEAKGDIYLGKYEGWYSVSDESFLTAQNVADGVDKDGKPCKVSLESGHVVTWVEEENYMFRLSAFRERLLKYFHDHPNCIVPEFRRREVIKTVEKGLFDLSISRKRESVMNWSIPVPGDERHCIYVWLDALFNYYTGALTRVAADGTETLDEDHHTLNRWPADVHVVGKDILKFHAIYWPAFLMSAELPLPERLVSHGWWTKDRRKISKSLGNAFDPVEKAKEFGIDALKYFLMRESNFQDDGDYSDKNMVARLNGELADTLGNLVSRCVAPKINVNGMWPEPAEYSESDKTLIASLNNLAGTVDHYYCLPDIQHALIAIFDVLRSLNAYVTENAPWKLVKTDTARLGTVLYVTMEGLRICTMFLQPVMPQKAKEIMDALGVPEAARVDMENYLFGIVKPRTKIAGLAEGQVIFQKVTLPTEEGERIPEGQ

From ChEMBL document CHEMBL3988442, “University of Dundee, Small-Polar-MMV Screening Library” (2021).

All values are in %.
The record does not define 0% and 100%; most values in the screen are far below 50% and negative numbers occur (in some assays of this library far below -100).
The compounds are a random part of those screened.

LdMetRS: 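Methionyl-tRNA synthetase (putative), Leishmania donovani (UniProt E9BF75). Primary screen of methionyl-tRNA synthetase; the read-out is not stated. The test concentration is not given. Values are per cent inhibition. About 68,000 compounds were tested under these conditions; 0.035% (about 24) showed 50% or more at least once.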
Mtb heat-shock: 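Assay on Mycobacterium tuberculosis, filed only as a heat shock assay from Cornell; the read-out is not stated. The concentration is filed as 10 mM, unlikely as a test dose, so the dose is not known. Higher reads as stronger inhibition (inferred: compounds with an IC50 in retests scored well above the rest). About 69,000 compounds were tested under these conditions; 1.4% (about 930) showed 50% or more at least once.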

- CCc1nccn1C1CCCN(C(=O)c2cnn3ccc(C)nc23)C1 (centres unmarked) : LdMetRS: 7.19%; Mtb heat-shock: 8.998%
- CCn1cc2c(n1)C(COC)CN(c1ccc(C)nn1)C2 (centres unmarked) : LdMetRS: 8.711%
- Cc1nn(-c2ccccc2Cl)c(C)c1CCC(=O)NCCS(C)(=O)=O : LdMetRS: 8.611%; Mtb heat-shock: -6.727%
- O=C(O)C(F)(F)F.[H][C@@]12CCN(CCOC)C(=O)[C@@]1([H])CN(Cc1ccc(C)s1)C2 : Mtb heat-shock: -15.05%
- Cc1nnc(NC(=O)NCc2ccc(C)n2C)s1 : LdMetRS: 0.7326%; Mtb heat-shock: -18.81%
- CN(C)S(=O)(=O)N1CCC(c2ccncn2)CC1 : LdMetRS: 12.9%; Mtb heat-shock: -2.343%
- O=C(C1CCCC1)N1CCC(C2CCN(Cc3ccc(Cl)cc3)C2)CC1 (centres unmarked) : LdMetRS: 14.25%; Mtb heat-shock: -1.526%
- Cc1ccc(S(=O)(=O)N2CCN(C)C3(CCC(=O)N(C)CC3)C2)s1 (centres unmarked) : LdMetRS: 7.216%; Mtb heat-shock: 6.156%
- CNC(=O)[C@H]1C[C@@H]2CCN(CCc3ccccc3)C[C@@H]2O1 : LdMetRS: 13.19%
- COC(=O)c1ccc(CCn2cnc(C#N)n2)cc1 : LdMetRS: 0.2793%; Mtb heat-shock: -42.52%
- CC(NC(=O)c1ccc(C(N)=O)cc1)c1cccc(N2CCOC2=O)c1 (centres unmarked) : LdMetRS: 18.82%; Mtb heat-shock: 5.778%
- O=C(CCn1cc(Cl)cn1)N1CCC2(CC1)[C@H](O)C[C@@H]2OCCO : LdMetRS: 12.57%; Mtb heat-shock: 1.711%
- CN(C)C(=O)C1CCCN1C(=O)c1ccc(Cn2ccnc2)o1 (centres unmarked) : LdMetRS: 12.53%; Mtb heat-shock: 2.47%
- O=C([C@@H]1CCO[C@@H]2CCN(CC3CCOCC3)C[C@H]21)N1CCCC1 : LdMetRS: 15.69%
- COc1ccc(CC(=O)N2C[C@H]3CN(Cc4ccccn4)C[C@H]3C2)cc1 : LdMetRS: 17.93%
- Cn1ccnc1CN(CCO)C(=O)C1CCN(C(=O)C2CC2)CC1 : LdMetRS: 42.86%; Mtb heat-shock: -2.194%
- CCC(=O)NCC(=O)NC(C)c1sc(-c2ccccc2F)nc1C (centres unmarked) : LdMetRS: 9.561%; Mtb heat-shock: -16.85%
- O=C(O)C(F)(F)F.[H][C@]12CO[C@@H](CNC(=O)N(C)C)[C@@]1([H])CCN(Cc1ccc(OC)cc1)C2 : Mtb heat-shock: -47.71%
- CNC(=O)[C@@H]1[C@@H](c2ccccc2)CN2CCN(Cc3ccccn3)C[C@H]12 : LdMetRS: 15.62%
- Cc1cnc(NCc2cnn(C)c2)nc1-c1cnn(C)c1 : LdMetRS: 16.45%; Mtb heat-shock: 3.279%
- Fc1cnc(N2CCOCC3(CCCN(c4cnccn4)C3)C2)nc1 (centres unmarked) : LdMetRS: 7.299%; Mtb heat-shock: 0.1466%
- Cc1nn(C)c(Cl)c1C1CCCN1CC(=O)Nc1cccnc1 (centres unmarked) : LdMetRS: 12.58%; Mtb heat-shock: 4.855%
- Cc1ccc(C)c(CSc2nnc(C(N)C(C)C)o2)c1.Cl (centres unmarked) : Mtb heat-shock: 10.42%
- CC(=O)N(C)c1nc(CN2CCOC(Cn3cccn3)C2)cs1 (centres unmarked) : LdMetRS: 14.13%; Mtb heat-shock: -5.64%
- CCC[C@H]1CN(c2cncc(C(=O)N(C)C)n2)C[C@@H]1N(C)C : LdMetRS: 3.081%; Mtb heat-shock: -9.842%
- Cc1ccc(OC2(C(=O)O)CCN(C(=O)CCc3ccco3)CC2)cn1 : LdMetRS: 15.46%; Mtb heat-shock: -15.42%
- CS(=O)(=O)N[C@@H]1CCO[C@]2(CCN(C(=O)c3cscn3)C2)C1 : LdMetRS: 10.95%; Mtb heat-shock: -9.704%
- CC(C)Nc1nc(N2CCOCC2)nc2c1CN(Cc1ccoc1)CC2 : LdMetRS: 12.89%; Mtb heat-shock: -195.7%
- Cc1cnc(N2C[C@@H]3CCN(CC(=O)N(C)C)C(=O)[C@H]3C2)nc1 : LdMetRS: 5.263%
- CN(C)C(=O)c1nn(C)c2c1CN(Cc1cccs1)C2 : LdMetRS: 13.75%
- CC(C)NC(=O)C1CN(Cc2ccsc2)Cc2ccnn2C1 (centres unmarked) : LdMetRS: 13.49%
- [H][C@]12CCN(C(C)=O)C[C@@]1([H])OCCN(C(=O)c1ccco1)C2 : Mtb heat-shock: -0.3151%
- Cc1nc(N2CCOCC2)nc2c1CCN(C(=O)C1CCCCC1)CC2 : LdMetRS: 18.16%; Mtb heat-shock: -7.115%